Reference: the supplement of paper PMC8728848
This is one part of the list.

How the values were obtained:
Experiment in all cases: glycan array binding signal (z-score within array); higher = stronger binding
Details in all cases: glycan notation: IUPAC condensed, linker removed
[1] = target: Fuc(a1-2)[Gal(a1-3)]Gal(b1-4)GlcNAc(b1-2)Man(a1-3)[Fuc(a1-2)[Gal(a1-3)]Gal(b1-4)GlcNAc(b1-2)Man(a1-6)]Man(b1-4)GlcNAc(b1-4)GlcNAc
Outline: (§1)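 The binding signal is a Z-score computed within each array. Data were drawn from 3228 arrays in the Consortium for Functional Glycomics database, restricted to those with a known protein sequence. Scores were averaged over arrays of the same protein sequence at different concentrations or buffers, and over linkers, and negative values can be taken as non-binding.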

[2] = target: Fuc(a1-2)[Gal(a1-3)]Gal(b1-4)GlcNAc(b1-2)Man(a1-3)[Fuc(a1-2)[Gal(a1-3)]Gal(b1-4)GlcNAc(b1-2)Man(a1-6)]Man(b1-4)GlcNAc(b1-4)[Fuc(a1-6)]GlcNAc
Outline: as §1

[3] = target: Fuc(a1-2)[Gal(a1-3)]Gal(b1-4)GlcNAc(b1-3)GalNAc
Outline: as §1

[4] = target: Fuc(a1-2)[Gal(a1-3)]Gal(b1-4)GlcNAc(b1-3)[Fuc(a1-2)[Gal(a1-3)]Gal(b1-4)GlcNAc(b1-6)]GalNAc
Outline: as §1

[5] = target: Fuc(a1-2)[Gal(a1-3)]Gal(b1-4)GlcNAc(b1-6)GalNAc
Outline: as §1

[6] = target: Fuc(a1-2)[Gal(a1-3)]Gal(b1-4)[Fuc(a1-3)]Glc
Outline: as §1

[7] = target: Fuc(a1-2)[Gal(a1-3)]Gal(b1-4)[Fuc(a1-3)]GlcNAc
Outline: as §1

[8] = target: Fuc(a1-2)[Gal(a1-3)]Gal(b1-4)[Fuc(a1-3)]GlcNAc(b1-3)GalNAc
Outline: as §1

[9] = target: Fuc(a1-2)[Gal(a1-4)]Gal(b1-4)GlcNAc
Outline: as §1

[10] = target: Fuc(a1-2)[GalNAc(a1-3)]Gal
Outline: as §1

[11] = target: Fuc(a1-2)[GalNAc(a1-3)]Gal(b1-3)GalNAc(a1-3)[Fuc(a1-2)]Gal(b1-4)GlcNAc
Outline: as §1

[12] = target: Fuc(a1-2)[GalNAc(a1-3)]Gal(b1-3)GalNAc(b1-3)Gal(a1-4)Gal(b1-4)Glc
Outline: as §1

[13] = target: Fuc(a1-2)[GalNAc(a1-3)]Gal(b1-3)GlcNAc
Outline: as §1

[14] = target: Fuc(a1-2)[GalNAc(a1-3)]Gal(b1-3)GlcNAc(b1-2)Man(a1-3)[Fuc(a1-2)[GalNAc(a1-3)]Gal(b1-3)GlcNAc(b1-2)Man(a1-6)]Man(b1-4)GlcNAc(b1-4)GlcNAc
Outline: as §1

[15] = target: Fuc(a1-2)[GalNAc(a1-3)]Gal(b1-3)GlcNAc(b1-2)Man(a1-3)[Fuc(a1-2)[GalNAc(a1-3)]Gal(b1-3)GlcNAc(b1-2)Man(a1-6)]Man(b1-4)GlcNAc(b1-4)[Fuc(a1-6)]GlcNAc
Outline: as §1

[16] = target: Fuc(a1-2)[GalNAc(a1-3)]Gal(b1-3)GlcNAc(b1-3)GalNAc
Outline: as §1

[17] = target: Fuc(a1-2)[GalNAc(a1-3)]Gal(b1-3)GlcNAc(b1-6)GalNAc
Outline: as §1

[18] = target: Fuc(a1-2)[GalNAc(a1-3)]Gal(b1-4)Glc
Outline: as §1

[19] = target: Fuc(a1-2)[GalNAc(a1-3)]Gal(b1-4)GlcNAc
Outline: as §1

[20] = target: Fuc(a1-2)[GalNAc(a1-3)]Gal(b1-4)GlcNAc(b1-2)Man
Outline: as §1

[21] = target: Fuc(a1-2)[GalNAc(a1-3)]Gal(b1-4)GlcNAc(b1-2)Man(a1-3)[Fuc(a1-2)[GalNAc(a1-3)]Gal(b1-4)GlcNAc(b1-2)Man(a1-6)]Man(b1-4)GlcNAc(b1-4)GlcNAc
Outline: as §1

[22] = target: Fuc(a1-2)[GalNAc(a1-3)]Gal(b1-4)GlcNAc(b1-2)Man(a1-3)[Fuc(a1-2)[GalNAc(a1-3)]Gal(b1-4)GlcNAc(b1-2)Man(a1-6)]Man(b1-4)GlcNAc(b1-4)[Fuc(a1-6)]GlcNAc
Outline: as §1

[23] = target: Fuc(a1-2)[GalNAc(a1-3)]Gal(b1-4)GlcNAc(b1-3)Gal(b1-4)GlcNAc
Outline: as §1

[24] = target: Fuc(a1-2)[GalNAc(a1-3)]Gal(b1-4)GlcNAc(b1-3)Gal(b1-4)GlcNAc(b1-3)Gal(b1-4)GlcNAc
Outline: as §1

[25] = target: Fuc(a1-2)[GalNAc(a1-3)]Gal(b1-4)GlcNAc(b1-3)GalNAc
Outline: as §1

[26] = target: Fuc(a1-2)[GalNAc(a1-3)]Gal(b1-4)GlcNAc(b1-3)[Fuc(a1-2)[GalNAc(a1-3)]Gal(b1-4)GlcNAc(b1-6)]GalNAc
Outline: as §1

[27] = target: Fuc(a1-2)[GalNAc(a1-3)]Gal(b1-4)GlcNAc(b1-6)GalNAc
Outline: as §1

[28] = target: Fuc(a1-2)[GalNAc(a1-3)]Gal(b1-4)[Fuc(a1-3)]GlcNAc
Outline: as §1

[29] = target: Fuc(a1-2)[GalNAc(a1-3)]Gal(b1-4)[Fuc(a1-3)]GlcNAc(b1-3)GalNAc
Outline: as §1

[30] = target: Fuc(a1-2)[GalNAc(a1-4)]Gal(b1-4)GlcNAc
Outline: as §1

[31] = target: Fuc(a1-2)[GalNAc(b1-3)]Gal
Outline: as §1

Fuc(a1-3)GlcNAc = target: Fuc(a1-3)GlcNAc
Outline: as §1

[32] = target: Fuc(a1-3)[Gal(b1-4)]Glc6S
Outline: as §1

[33] = target: Fuc(a1-3)[Gal(b1-4)]GlcNAc
Outline: as §1

[34] = target: Fuc(a1-3)[Gal(b1-4)]GlcNAc(b1-2)Man
Outline: as §1

[35] = target: Fuc(a1-3)[Gal(b1-4)]GlcNAc(b1-2)Man(a1-3)[Fuc(a1-3)[Gal(b1-4)]GlcNAc(b1-2)Man(a1-6)]Man(b1-4)GlcNAc(b1-4)GlcNAc
Outline: as §1

[36] = target: Fuc(a1-3)[Gal(b1-4)]GlcNAc(b1-2)Man(a1-3)[Fuc(a1-3)[Gal(b1-4)]GlcNAc(b1-2)Man(a1-6)]Man(b1-4)GlcNAc(b1-4)[Fuc(a1-6)]GlcNAc
Outline: as §1

[37] = target: Fuc(a1-3)[Gal(b1-4)]GlcNAc(b1-3)Gal(b1-3)[Fuc(a1-4)]GlcNAc
Outline: as §1

[38] = target: Fuc(a1-3)[Gal(b1-4)]GlcNAc(b1-3)Gal(b1-4)[Fuc(a1-3)]GlcNAc
Outline: as §1

[39] = target: Fuc(a1-3)[Gal(b1-4)]GlcNAc(b1-3)Gal(b1-4)[Fuc(a1-3)]GlcNAc(b1-3)Gal(b1-4)[Fuc(a1-3)]GlcNAc
Outline: as §1

[40] = target: Fuc(a1-3)[Gal(b1-4)]GlcNAc(b1-3)GalNAc
Outline: as §1

[41] = target: Fuc(a1-3)[Gal(b1-4)]GlcNAc(b1-6)GalNAc
Outline: as §1

[42] = target: Fuc(a1-3)[Gal(b1-4)]GlcNAc(b1-6)[Gal(b1-3)GlcNAc(b1-3)]Gal(b1-4)Glc
Outline: as §1

[43] = target: Fuc(a1-3)[Gal(b1-4)]GlcNAc6S
Outline: as §1

[44] = target: Fuc(a1-3)[Gal3S(b1-4)]Glc
Outline: as §1

[45] = target: Fuc(a1-3)[Gal3S(b1-4)]GlcNAc
Outline: as §1

[46] = target: Fuc(a1-3)[Gal3S(b1-4)]GlcNAc6S
Outline: as §1

[47] = target: Fuc(a1-3)[GalNAc(b1-4)]GlcNAc
Outline: as §1

[48] = target: Fuc(a1-3)[GalNAc(b1-4)]GlcNAc6S
Outline: as §1

Fuc(a1-4)GlcNAc = target: Fuc(a1-4)GlcNAc
Outline: as §1

Fuc(b1-3)GlcNAc = target: Fuc(b1-3)GlcNAc
Outline: as §1

Gal(a1-2)Gal = target: Gal(a1-2)Gal
Outline: as §1

Gal(a1-3)Gal = target: Gal(a1-3)Gal
Outline: as §1

Gal(a1-3)Gal(b1-3)GlcNAc = target: Gal(a1-3)Gal(b1-3)GlcNAc
Outline: as §1

[49] = target: Gal(a1-3)Gal(b1-3)GlcNAc(b1-2)Man
Outline: as §1

[50] = target: Gal(a1-3)Gal(b1-3)GlcNAc(b1-2)Man(a1-3)[Gal(a1-3)Gal(b1-3)GlcNAc(b1-2)Man(a1-6)]Man(b1-4)GlcNAc(b1-4)GlcNAc
Outline: as §1

[51] = target: Gal(a1-3)Gal(b1-3)GlcNAc(b1-3)GalNAc
Outline: as §1

[52] = target: Gal(a1-3)Gal(b1-3)GlcNAc(b1-6)GalNAc
Outline: as §1

[53] = target: Gal(a1-3)Gal(b1-3)[Fuc(a1-4)]GlcNAc(b1-2)Man(a1-3)[Gal(a1-3)Gal(b1-3)[Fuc(a1-4)]GlcNAc(b1-2)Man(a1-6)]Man(b1-4)GlcNAc(b1-4)GlcNAc
Outline: as §1

Gal(a1-3)Gal(b1-4)Glc = target: Gal(a1-3)Gal(b1-4)Glc
Outline: as §1

B1: CcfD (Bacteroides fragilis), Q5L9G4 (protein)
chain: MKKQNSIYTLLIALLCFVSSCDYLGVSDQLAGGLQNTEQVFDNVSYTKRWYANVFAGIPDYSGINSVNVGAFKNPWTGMCDELVVGYGNSSKYNNSDRNAANMGFHRYGDCYKYIRQANIFLQKAHPIMTTGTQGDQLLEDELTQMKANVRFMRAFYHYLLFEQYGPIILVKDKIYNATEDQDVPRNTVDEVIEYIDSELTAVASELTQEPIFEDKDYRAWPTKGVALAVRAKLWLYAASPLLNGGYREALSVTNPDGTRLFPDYDAGKWEKALAACKDFIDYAEAGRYELYKEYKDDNGAVIDPDKSVYNLFQKYTHEIIWATANNDWGGMNGDAFDRRIAPRCEKNGLGSTGVTQELVDAFYMKDGFPVSATAYLPQSTLYQEEGYGTYKDQNDNFSKKYTNVTVSNRYLNREPRFYNTVFFNGRQWPVSCNQVLFYNGGNSGVQEGQATLTGYMLFKRFNRSVSLTNPGVASQFRPSIIFRLADFYLMYAEAANEVNPNDARVLKYLNLVRERAGLPDIETLNPAIRGNQELQRAAIQRERQIELATEGQRYFDVRRWMIADKNGEGRQNGYVHGMNVRGESNDKEDFNRIVEASQIVFNRKMYLYPMPDSEMRKTKNLVQNPGW
glycan array binding signal (z-score) [1]: -0.292 | glycan array binding signal (z-score) [2]: -1.55 | glycan array binding signal (z-score) [3]: -0.706 | glycan array binding signal (z-score) [4]: -0.923 | glycan array binding signal (z-score) [5]: -0.384 | glycan array binding signal (z-score) [6]: -0.253 | glycan array binding signal (z-score) [7]: 0.121 | glycan array binding signal (z-score) [8]: 0.64 | glycan array binding signal (z-score) [9]: -0.062 | glycan array binding signal (z-score) [10]: -0.43 | glycan array binding signal (z-score) [11]: 2.62 | glycan array binding signal (z-score) [12]: 1.77 | glycan array binding signal (z-score) [13]: -0.529 | glycan array binding signal (z-score) [14]: -0.062 | glycan array binding signal (z-score) [15]: 0.279 | glycan array binding signal (z-score) [16]: 0.758 | glycan array binding signal (z-score) [17]: 0.161 | glycan array binding signal (z-score) [18]: -0.542 | glycan array binding signal (z-score) [19]: -0.732 | glycan array binding signal (z-score) [20]: -0.161 | glycan array binding signal (z-score) [21]: 1.84 | glycan array binding signal (z-score) [22]: -0.03 | glycan array binding signal (z-score) [23]: 1.34 | glycan array binding signal (z-score) [24]: -1.07 | glycan array binding signal (z-score) [25]: 0.056 | glycan array binding signal (z-score) [26]: 1.13 | glycan array binding signal (z-score) [27]: -1.16 | glycan array binding signal (z-score) [28]: 0.095 | glycan array binding signal (z-score) [29]: 0.975 | glycan array binding signal (z-score) [30]: -0.982 | glycan array binding signal (z-score) [31]: 1.45 | glycan array binding signal (z-score) (Fuc(a1-3)GlcNAc): 0.804 | glycan array binding signal (z-score) [32]: -0.292 | glycan array binding signal (z-score) [33]: -0.499 | glycan array binding signal (z-score) [34]: -0.253 | glycan array binding signal (z-score) [35]: -1 | glycan array binding signal (z-score) [36]: -0.259 | glycan array binding signal (z-score) [37]: -0.916 | glycan array binding signal (z-score) [38]: 0.667 | glycan array binding signal (z-score) [39]: -0.765 | glycan array binding signal (z-score) [40]: -0.851 | glycan array binding signal (z-score) [41]: 0.325 | glycan array binding signal (z-score) [42]: -0.207 | glycan array binding signal (z-score) [43]: 0.312 | glycan array binding signal (z-score) [44]: 0.016 | glycan array binding signal (z-score) [45]: -0.903 | glycan array binding signal (z-score) [46]: -0.811 | glycan array binding signal (z-score) [47]: 1.65 | glycan array binding signal (z-score) [48]: 0.496 | glycan array binding signal (z-score) (Fuc(a1-4)GlcNAc): -0.03 | glycan array binding signal (z-score) (Fuc(b1-3)GlcNAc): 0.181 | glycan array binding signal (z-score) (Gal(a1-2)Gal): 0.601 | glycan array binding signal (z-score) (Gal(a1-3)Gal): 0.358 | glycan array binding signal (z-score) (Gal(a1-3)Gal(b1-3)GlcNAc): -0.988 | glycan array binding signal (z-score) [49]: -1.47 | glycan array binding signal (z-score) [50]: 0.804 | glycan array binding signal (z-score) [51]: -0.299 | glycan array binding signal (z-score) [52]: -0.818 | glycan array binding signal (z-score) [53]: -0.785 | glycan array binding signal (z-score) (Gal(a1-3)Gal(b1-4)Glc): -0.141
